According to US20240067747A1 (SHANGHAI HUAOTA BIOPHARMACEUTICAL, published 2024):
No constants are given. Whether binding was seen depends on the method and setting. Some binding calls cover weakened binding; strength is not graded here.

T1: Human CD73 (as used in the hybridoma screening of Table 1) (human) (UniProt P21589)
T1 sequence (looked up): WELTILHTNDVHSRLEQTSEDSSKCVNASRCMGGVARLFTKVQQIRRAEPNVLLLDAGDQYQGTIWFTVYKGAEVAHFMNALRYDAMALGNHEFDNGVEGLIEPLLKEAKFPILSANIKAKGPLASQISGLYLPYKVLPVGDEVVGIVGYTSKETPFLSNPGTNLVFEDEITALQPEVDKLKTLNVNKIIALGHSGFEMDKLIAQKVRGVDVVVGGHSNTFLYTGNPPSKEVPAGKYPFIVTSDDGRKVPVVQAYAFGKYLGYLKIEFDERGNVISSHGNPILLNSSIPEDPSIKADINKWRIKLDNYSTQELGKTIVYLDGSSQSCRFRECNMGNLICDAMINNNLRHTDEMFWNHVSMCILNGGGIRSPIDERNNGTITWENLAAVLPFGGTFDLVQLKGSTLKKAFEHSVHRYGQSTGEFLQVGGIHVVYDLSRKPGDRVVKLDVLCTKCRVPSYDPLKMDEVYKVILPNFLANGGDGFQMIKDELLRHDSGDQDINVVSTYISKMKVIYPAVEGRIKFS

B1: 124A9 murine monoclonal antigen-binding protein (hybridoma clone 124A9) (antibody, V domains shown)
VH: QVQLQQPGAELVKPGASVKLSCKASGYTFTSYWIHWVKQRPGQGLDWIGMIHPNSGSTYYNEKFKSKATLTVDKSSSTAYMQLSSLTSEDSAVYYCARYYGSDYEWYFDVWGTGTTVTVSS
VL: DIVMTQSQKFMSTSVGDRVSITCKASQNVRTAVVWYQQNPGQSPKALIYLASNRHTGVPDRFTGSGSGTDFTLTISNVHSEDLADYFCLQHWNYPYTFGGGTKLEIK
B2: 900567 (human-mouse chimeric anti-CD73 antigen-binding protein expressed from 124A9 variable regions) (antibody, V domains shown)
VH: QVQLQQPGAELVKPGASVKLSCKASGYTFTSYWIHWVKQRPGQGLDWIGMIHPNSGSTYYNEKFKSKATLTVDKSSSTAYMQLSSLTSEDSAVYYCARYYGSDYEWYFDVWGTGTTVTVSS
VL: DIVMTQSQKFMSTSVGDRVSITCKASQNVRTAVVWYQQNPGQSPKALIYLASNRHTGVPDRFTGSGSGTDFTLTISNVHSEDLADYFCLQHWNYPYTFGGGTKLEIK
B3: 900725 (humanized anti-CD73 antigen-binding protein) (antibody, V domains shown)
VH: QVQLVQSGAEVKKPGASVKLSCKASGYTFTSYWIHWVRQAPGQGLEWIGMIHPNSGSTYYNEKFKGRATLTVDKSTSTAYMELSSLRSEDTAVYYCARYYGSDYEWYFDVWGQGTTVTVSS
VL: DIQMTQSPSSMSASVGDRVTITCKASQNVRTAVVWYQQKPGKAPKALIYLASNRHTGVPDRFSGSGSGTDFTLTISSLQPEDFATYFCLQHWNYPYTFGQGTKLEIK
B4: 900727 (humanized anti-CD73 antigen-binding protein) (antibody, V domains shown)
VH: QVQLVQSGAEVKKPGASVKVSCKASGYTFTSYWIHWVRQAPGQGLEWIGMIHPNSGSTYYAQKFQGRVTITVDKSTSTAYMELSSLRSEDTAVYYCARYYGSDYEWYFDVWGQGTTVTVSS
VL: DIQMTQSPSSMSASVGDRVTITCKASQNVRTAVVWYQQKPGKAPKALIYLASNRHTGVPDRFSGSGSGTDFTLTISSLQPEDFATYFCLQHWNYPYTFGQGTKLEIK
B5: 900726 (humanized anti-CD73 antigen-binding protein) (antibody, V domains shown)
VH: QVQLVQSGAEVKKPGASVKLSCKASGYTFTSYWIHWVRQAPGQGLEWIGMIHPNSGSTYYNEKFKGRATLTVDKSTSTAYMELSSLRSEDTAVYYCARYYGSDYEWYFDVWGQGTTVTVSS
VL: DIQMTQSPSSLSASVGDRVTITCKASQNVRTAVVWYQQKPGKAPKALIYLASNRHTGVPDRFSGSGSGTDFTLTISSLQPEDFATYYCLQHWNYPYTFGQGTKLEIK
B6: 900728 (humanized anti-CD73 antigen-binding protein) (antibody, V domains shown)
VH: QVQLVQSGAEVKKPGASVKVSCKASGYTFTSYWIHWVRQAPGQGLEWIGMIHPNSGSTYYNEKFQGRVTMTVDKSTSTAYMELSSLRSEDTAVYYCARYYGSDYEWYFDVWGQGTTVTVSS
VL: DIQMTQSPSSLSASVGDRVTITCKASQNVRTAVVWYQQKPGKAPKALIYLASNRHTGVPDRFSGSGSGTDFTLTISSLQPEDFATYYCLQHWNYPYTFGQGTKLEIK

These binders were tested against T1, Human CD73 (as used in the hybridoma screening of Table 1) (human) (assay: hybridoma screen (FACS, Biacore)).

binding, binds:
B1

Each binder was assayed against Cynomolgus CD73 protein (Novoprotein, item No. CI21) (cynomolgus) (assay: SPR, Biacore T200, protein A capture).

binding, binds:
B2
B3
B4
B5
B6
